# The list shows a part of the results. The list holds hits alone, and they repeat only in part.
# Chains of the proteins cited; added tags and fusions are not shown.
# ACTL6A, O96019, UniProt O96019, whole entry: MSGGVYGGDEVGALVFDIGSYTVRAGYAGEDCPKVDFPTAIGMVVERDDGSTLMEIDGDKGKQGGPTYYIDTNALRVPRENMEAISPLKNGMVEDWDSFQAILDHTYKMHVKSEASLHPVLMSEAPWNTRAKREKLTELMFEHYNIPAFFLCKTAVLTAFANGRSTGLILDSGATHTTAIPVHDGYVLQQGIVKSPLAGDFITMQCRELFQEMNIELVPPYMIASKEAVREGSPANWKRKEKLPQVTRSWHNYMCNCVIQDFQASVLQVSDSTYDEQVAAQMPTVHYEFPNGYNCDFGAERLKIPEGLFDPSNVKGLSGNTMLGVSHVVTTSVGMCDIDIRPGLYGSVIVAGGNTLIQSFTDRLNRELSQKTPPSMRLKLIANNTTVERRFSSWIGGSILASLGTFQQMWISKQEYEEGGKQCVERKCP
# ATP6V1A, P38606, UniProt P38606, whole entry: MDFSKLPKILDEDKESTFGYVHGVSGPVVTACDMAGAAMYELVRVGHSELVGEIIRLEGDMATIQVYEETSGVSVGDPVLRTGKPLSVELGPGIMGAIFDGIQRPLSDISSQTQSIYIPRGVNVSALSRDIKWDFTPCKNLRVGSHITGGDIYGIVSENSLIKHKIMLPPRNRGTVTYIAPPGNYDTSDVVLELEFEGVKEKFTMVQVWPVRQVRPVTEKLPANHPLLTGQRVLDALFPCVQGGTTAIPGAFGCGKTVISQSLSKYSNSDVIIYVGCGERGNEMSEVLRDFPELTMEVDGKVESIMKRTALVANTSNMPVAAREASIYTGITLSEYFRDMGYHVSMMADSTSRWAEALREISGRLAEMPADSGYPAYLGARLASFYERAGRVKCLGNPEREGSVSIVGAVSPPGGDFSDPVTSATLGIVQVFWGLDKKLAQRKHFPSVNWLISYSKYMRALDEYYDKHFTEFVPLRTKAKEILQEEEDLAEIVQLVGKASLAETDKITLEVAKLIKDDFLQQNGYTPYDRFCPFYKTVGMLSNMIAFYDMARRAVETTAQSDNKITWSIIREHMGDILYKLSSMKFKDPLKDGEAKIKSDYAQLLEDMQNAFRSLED
# CCAR2, Q8N163, UniProt Q8N163, whole entry: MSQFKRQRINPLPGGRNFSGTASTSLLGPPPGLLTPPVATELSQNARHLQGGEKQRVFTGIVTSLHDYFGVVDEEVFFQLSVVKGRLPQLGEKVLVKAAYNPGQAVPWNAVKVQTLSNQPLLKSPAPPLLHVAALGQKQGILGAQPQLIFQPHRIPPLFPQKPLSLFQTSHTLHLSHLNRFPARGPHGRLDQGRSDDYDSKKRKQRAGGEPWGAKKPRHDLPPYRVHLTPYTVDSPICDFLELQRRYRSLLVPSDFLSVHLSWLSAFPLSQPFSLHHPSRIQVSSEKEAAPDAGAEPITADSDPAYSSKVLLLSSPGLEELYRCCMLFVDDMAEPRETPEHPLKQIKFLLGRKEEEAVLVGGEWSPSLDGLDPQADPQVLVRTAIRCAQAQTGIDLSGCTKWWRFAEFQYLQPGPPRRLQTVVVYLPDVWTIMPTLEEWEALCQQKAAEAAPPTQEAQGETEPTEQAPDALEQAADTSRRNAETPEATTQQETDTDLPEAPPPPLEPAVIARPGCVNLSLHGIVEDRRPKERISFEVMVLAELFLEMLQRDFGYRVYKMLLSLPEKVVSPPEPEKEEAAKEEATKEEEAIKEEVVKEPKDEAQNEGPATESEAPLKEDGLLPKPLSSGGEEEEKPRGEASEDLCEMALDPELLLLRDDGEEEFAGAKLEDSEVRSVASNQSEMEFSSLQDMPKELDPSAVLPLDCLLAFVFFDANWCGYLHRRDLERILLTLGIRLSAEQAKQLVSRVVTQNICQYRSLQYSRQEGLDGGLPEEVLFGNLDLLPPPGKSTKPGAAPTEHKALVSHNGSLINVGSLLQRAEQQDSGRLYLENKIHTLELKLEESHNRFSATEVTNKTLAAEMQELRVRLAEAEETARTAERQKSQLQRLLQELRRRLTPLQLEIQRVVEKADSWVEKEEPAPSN
# EIF3F, O00303, UniProt O00303, whole entry: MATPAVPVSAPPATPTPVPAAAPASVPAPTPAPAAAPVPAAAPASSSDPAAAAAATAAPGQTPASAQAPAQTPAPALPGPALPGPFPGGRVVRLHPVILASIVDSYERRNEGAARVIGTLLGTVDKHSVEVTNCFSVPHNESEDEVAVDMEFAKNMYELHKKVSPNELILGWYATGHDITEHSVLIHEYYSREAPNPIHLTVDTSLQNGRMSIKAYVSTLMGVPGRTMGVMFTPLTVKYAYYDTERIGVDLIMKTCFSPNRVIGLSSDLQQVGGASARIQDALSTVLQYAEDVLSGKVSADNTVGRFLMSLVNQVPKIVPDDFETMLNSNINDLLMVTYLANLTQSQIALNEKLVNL
# NDUFS6, O75380, UniProt O75380, whole entry: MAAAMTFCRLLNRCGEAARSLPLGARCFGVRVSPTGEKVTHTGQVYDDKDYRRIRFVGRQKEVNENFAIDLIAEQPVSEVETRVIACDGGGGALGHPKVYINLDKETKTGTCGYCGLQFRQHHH
# PPP1CA, P62136, UniProt P62136, whole entry: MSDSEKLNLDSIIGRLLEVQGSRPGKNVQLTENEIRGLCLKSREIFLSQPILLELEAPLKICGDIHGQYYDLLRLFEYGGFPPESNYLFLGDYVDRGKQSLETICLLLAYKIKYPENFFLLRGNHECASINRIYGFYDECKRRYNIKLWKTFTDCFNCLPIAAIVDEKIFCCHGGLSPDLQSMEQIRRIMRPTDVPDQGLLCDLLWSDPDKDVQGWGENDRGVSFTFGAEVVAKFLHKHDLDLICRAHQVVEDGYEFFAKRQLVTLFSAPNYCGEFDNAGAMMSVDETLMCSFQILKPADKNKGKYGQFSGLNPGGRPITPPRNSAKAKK
# EIF3L, Q9Y262, UniProt Q9Y262, whole entry: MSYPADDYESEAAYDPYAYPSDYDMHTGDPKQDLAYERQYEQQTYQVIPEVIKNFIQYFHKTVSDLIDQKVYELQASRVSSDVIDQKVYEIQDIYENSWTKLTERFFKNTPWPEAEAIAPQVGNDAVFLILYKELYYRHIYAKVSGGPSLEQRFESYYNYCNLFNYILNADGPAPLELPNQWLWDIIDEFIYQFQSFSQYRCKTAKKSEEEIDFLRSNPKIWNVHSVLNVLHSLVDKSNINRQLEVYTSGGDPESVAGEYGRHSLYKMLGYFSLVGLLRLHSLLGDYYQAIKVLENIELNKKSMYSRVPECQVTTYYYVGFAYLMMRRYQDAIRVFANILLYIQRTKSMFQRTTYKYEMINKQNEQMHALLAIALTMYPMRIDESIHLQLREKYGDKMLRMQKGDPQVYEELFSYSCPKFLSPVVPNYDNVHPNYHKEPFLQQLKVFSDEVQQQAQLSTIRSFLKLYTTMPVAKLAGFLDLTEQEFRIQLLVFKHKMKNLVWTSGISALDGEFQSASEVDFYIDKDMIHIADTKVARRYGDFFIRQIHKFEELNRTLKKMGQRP
# INTS2, Q9H0H0, UniProt Q9H0H0, whole entry: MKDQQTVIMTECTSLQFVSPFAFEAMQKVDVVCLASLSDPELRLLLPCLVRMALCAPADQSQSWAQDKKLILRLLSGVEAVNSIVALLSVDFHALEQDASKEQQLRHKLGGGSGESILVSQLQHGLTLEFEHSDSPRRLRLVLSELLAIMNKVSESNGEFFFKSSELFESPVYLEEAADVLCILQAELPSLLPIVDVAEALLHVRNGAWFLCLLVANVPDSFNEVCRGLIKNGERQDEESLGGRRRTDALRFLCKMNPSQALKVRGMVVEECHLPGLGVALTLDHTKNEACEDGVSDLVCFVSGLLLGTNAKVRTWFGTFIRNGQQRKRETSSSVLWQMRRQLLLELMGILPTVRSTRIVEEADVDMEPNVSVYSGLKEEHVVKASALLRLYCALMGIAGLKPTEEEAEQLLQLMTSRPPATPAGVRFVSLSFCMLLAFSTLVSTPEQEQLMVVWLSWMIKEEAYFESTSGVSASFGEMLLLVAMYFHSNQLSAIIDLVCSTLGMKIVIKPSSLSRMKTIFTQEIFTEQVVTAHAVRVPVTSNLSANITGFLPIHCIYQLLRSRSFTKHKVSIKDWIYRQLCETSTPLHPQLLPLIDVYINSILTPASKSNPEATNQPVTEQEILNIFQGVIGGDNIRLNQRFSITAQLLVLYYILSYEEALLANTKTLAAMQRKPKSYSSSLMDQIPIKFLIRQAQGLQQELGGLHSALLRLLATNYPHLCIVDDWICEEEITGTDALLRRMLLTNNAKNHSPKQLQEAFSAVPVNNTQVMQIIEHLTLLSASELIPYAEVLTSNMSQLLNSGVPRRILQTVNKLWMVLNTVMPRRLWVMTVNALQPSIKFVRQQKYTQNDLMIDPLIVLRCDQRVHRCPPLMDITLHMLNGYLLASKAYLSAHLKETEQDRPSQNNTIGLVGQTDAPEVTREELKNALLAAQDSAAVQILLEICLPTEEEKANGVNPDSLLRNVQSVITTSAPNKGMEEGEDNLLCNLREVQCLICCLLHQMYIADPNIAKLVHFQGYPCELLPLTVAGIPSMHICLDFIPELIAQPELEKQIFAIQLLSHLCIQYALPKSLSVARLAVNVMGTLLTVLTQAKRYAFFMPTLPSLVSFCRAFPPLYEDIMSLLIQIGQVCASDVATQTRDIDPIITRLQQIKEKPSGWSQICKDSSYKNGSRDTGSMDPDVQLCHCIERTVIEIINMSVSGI
# RAD18, Q9NS91, UniProt Q9NS91, whole entry: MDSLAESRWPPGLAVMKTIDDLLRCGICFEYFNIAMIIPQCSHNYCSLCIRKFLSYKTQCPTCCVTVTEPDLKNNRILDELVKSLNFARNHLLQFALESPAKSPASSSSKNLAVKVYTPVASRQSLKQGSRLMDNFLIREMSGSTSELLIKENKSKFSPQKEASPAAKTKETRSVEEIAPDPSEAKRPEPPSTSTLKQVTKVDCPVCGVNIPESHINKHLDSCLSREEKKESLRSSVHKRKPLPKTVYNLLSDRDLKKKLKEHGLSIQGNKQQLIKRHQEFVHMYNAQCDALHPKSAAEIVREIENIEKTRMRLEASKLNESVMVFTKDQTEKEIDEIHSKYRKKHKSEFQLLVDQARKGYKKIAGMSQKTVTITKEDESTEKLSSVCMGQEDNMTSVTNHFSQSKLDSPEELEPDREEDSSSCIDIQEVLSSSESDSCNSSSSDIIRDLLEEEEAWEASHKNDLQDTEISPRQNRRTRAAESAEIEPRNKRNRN
# TRAPPC2L, Q9UL33, UniProt Q9UL33, whole entry: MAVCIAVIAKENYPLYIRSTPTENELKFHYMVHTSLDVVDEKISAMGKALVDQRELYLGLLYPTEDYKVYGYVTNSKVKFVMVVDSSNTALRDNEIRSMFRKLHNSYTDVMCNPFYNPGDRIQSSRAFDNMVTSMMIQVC
# ACTBL2, Q562R1, UniProt Q562R1, whole entry: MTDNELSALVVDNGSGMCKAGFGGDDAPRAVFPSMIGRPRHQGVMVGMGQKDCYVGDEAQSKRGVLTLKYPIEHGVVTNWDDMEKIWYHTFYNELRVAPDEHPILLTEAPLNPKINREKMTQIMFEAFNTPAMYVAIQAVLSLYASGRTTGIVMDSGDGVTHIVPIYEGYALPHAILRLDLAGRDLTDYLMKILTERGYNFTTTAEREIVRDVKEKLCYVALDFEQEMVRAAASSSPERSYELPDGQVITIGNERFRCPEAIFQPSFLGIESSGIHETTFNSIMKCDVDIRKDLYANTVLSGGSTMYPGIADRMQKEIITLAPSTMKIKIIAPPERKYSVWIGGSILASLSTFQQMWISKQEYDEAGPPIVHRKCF
# B1: RP11-140K17.3_2 (peptide)
# chain: ARGPGGGPLLASFAT
# B2: JPX (peptide)
# chain: MAAFARSAITASLRG
# B3: MKKS (peptide)
# chain: RIKSSPVFQIPKNDD
# Legend:
# Test in all cases: PRISMA enrichment of interactor (LFQ) in peptide spot vs all other peptide spots (log2 fold change); higher = stronger / more specific binding of the interactor to the peptide
# [1] = target: ACTL6A, O96019
# Description: (§1)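 PRISMA: 15-aa overlapping tiles (offset 8 aa) of 60 microproteins, plus SOS1/GLUT1 control peptides, were spot-synthesized on cellulose membranes in triplicate. Membranes were incubated with benzonase-treated HEK293T lysate, and bound proteins were identified by LC-MS/MS with LFQ. Enrichment is the log2 fold change of each protein in one spot versus all other spots. Only interactors passing the significance cutoff are listed.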
# [2] = target: AHSG, P02765
# Description: as §1
# [3] = target: AKAP8, O43823
# Description: as §1
# [4] = target: AKR1C1, Q04828
# Description: as §1
# [5] = target: ARMC6, Q6NXE6
# Description: as §1
# [6] = target: ATP5MF, P56134
# Description: as §1
# [7] = target: ATP6V1A, P38606
# Description: as §1
# [8] = target: BHMT, Q93088
# Description: as §1
# [9] = target: CARM1, Q86X55
# Description: as §1
# [10] = target: CCAR2, Q8N163
# Description: as §1
# [11] = target: DDX42, Q86XP3
# Description: as §1
# [12] = target: EIF3F, O00303
# Description: as §1
# [13] = target: EXOSC10, Q01780
# Description: as §1
# [14] = target: FADS1, O60427
# Description: as §1
# [15] = target: FAM207A, Q9NSI2
# Description: as §1
# [16] = target: FARSB, Q9NSD9
# Description: as §1
# [17] = target: GATA6, Q92908
# Description: as §1
# [18] = target: HADHA, P40939
# Description: as §1
# [19] = target: ITCH, Q96J02
# Description: as §1
# [20] = target: KIF18A, Q8NI77
# Description: as §1
# [21] = target: MED23, Q9ULK4
# Description: as §1
# [22] = target: MTHFD2, P13995
# Description: as §1
# [23] = target: MTOR, P42345
# Description: as §1
# [24] = target: MTX2, O75431
# Description: as §1
# [25] = target: NDUFS6, O75380
# Description: as §1
# [26] = target: OGT, O15294
# Description: as §1
# [27] = target: PPP1CA, P62136
# Description: as §1
# [28] = target: PPP1CC, P36873
# Description: as §1
# [29] = target: PRAF2, O60831
# Description: as §1
# [30] = target: PRDX6, P30041
# Description: as §1
# [31] = target: PRMT1, Q99873
# Description: as §1
# [32] = target: RP9, Q8TA86
# Description: as §1
# [33] = target: SNU13, P55769
# Description: as §1
# [34] = target: SRFBP1, Q8NEF9
# Description: as §1
# [35] = target: TNIK, Q9UKE5
# Description: as §1
# [36] = target: TOP2B, Q02880
# Description: as §1
# [37] = target: UBE2N, P61088
# Description: as §1
# [38] = target: UMPS, P11172
# Description: as §1
# [39] = target: VCP, P55072
# Description: as §1
# [40] = target: YTHDC1, Q96MU7
# Description: as §1
# [41] = target: ZC3H11A, O75152
# Description: as §1
# [42] = target: ZNF281, Q9Y2X9
# Description: as §1
# [43] = target: CCT2, P78371
# Description: as §1
# [44] = target: CEP290, O15078
# Description: as §1
# [45] = target: COPG1, Q9Y678
# Description: as §1
# [46] = target: COQ8A, Q8NI60
# Description: as §1
# [47] = target: CYC1, P08574
# Description: as §1
# [48] = target: DHX30, Q7L2E3
# Description: as §1
# [49] = target: EIF3L, Q9Y262
# Description: as §1
# [50] = target: ERAL1, O75616
# Description: as §1
# [51] = target: GMNN, O75496
# Description: as §1
# [52] = target: HP1BP3, Q5SSJ5
# Description: as §1
# [53] = target: INTS2, Q9H0H0
# Description: as §1
# [54] = target: IRAK1, P51617
# Description: as §1
# [55] = target: LYZ, P61626
# Description: as §1
# [56] = target: MMS19, Q96T76
# Description: as §1
# [57] = target: MRPL18, Q9H0U6
# Description: as §1
# [58] = target: MRPL21, Q7Z2W9
# Description: as §1
# [59] = target: NEPRO, Q6NW34
# Description: as §1
# [60] = target: NOP53, Q9NZM5
# Description: as §1
# [61] = target: NUP107, P57740
# Description: as §1
# [62] = target: PDCD5, O14737
# Description: as §1
# [63] = target: PPIG, Q13427
# Description: as §1
# [64] = target: PUF60, Q9UHX1
# Description: as §1
# [65] = target: RAD18, Q9NS91
# Description: as §1
# [66] = target: RPL28, P46779
# Description: as §1
# [67] = target: SLC25A22, Q9H936
# Description: as §1
# [68] = substrate: SON, P18583
# Description: as §1
# [69] = target: TRA2A, Q13595
# Description: as §1
# [70] = target: TRAPPC2L, Q9UL33
# Description: as §1
# [71] = target: UBL5, Q9BZL1
# Description: as §1
# [72] = target: UPF1, Q92900
# Description: as §1
# [73] = target: ACTBL2, Q562R1
# Description: as §1
# [74] = target: ARCN1, P48444
# Description: as §1
# [75] = target: BZW1, Q7L1Q6
# Description: as §1
# [76] = target: CHERP, Q8IWX8
# Description: as §1
# [77] = target: GAPVD1, Q14C86
# Description: as §1
# [78] = target: PDCD6IP, Q8WUM4
# Description: as §1
# [79] = target: SCPEP1, Q9HB40
# Description: as §1
# [80] = target: YARS, P54577
# Description: as §1
binder,measurement,setting,value
B1,PRISMA enrichment of interactor (log2),[1],4.52
same,PRISMA enrichment of interactor (log2),[2],4.95
same,PRISMA enrichment of interactor (log2),[3],4.43
same,PRISMA enrichment of interactor (log2),[4],6.2
same,PRISMA enrichment of interactor (log2),[5],5.68
same,PRISMA enrichment of interactor (log2),[6],5.19
same,PRISMA enrichment of interactor (log2),[7],4.83
same,PRISMA enrichment of interactor (log2),[8],5.79
same,PRISMA enrichment of interactor (log2),[9],5.19
same,PRISMA enrichment of interactor (log2),[10],5.58
same,PRISMA enrichment of interactor (log2),[11],7.98
same,PRISMA enrichment of interactor (log2),[12],4.81
same,PRISMA enrichment of interactor (log2),[13],4.77
same,PRISMA enrichment of interactor (log2),[14],8.36
same,PRISMA enrichment of interactor (log2),[15],5.97
same,PRISMA enrichment of interactor (log2),[16],8.66
same,PRISMA enrichment of interactor (log2),[17],4.55
same,PRISMA enrichment of interactor (log2),[18],5.55
same,PRISMA enrichment of interactor (log2),[19],4.57
same,PRISMA enrichment of interactor (log2),[20],4.54
same,PRISMA enrichment of interactor (log2),[21],5.2
same,PRISMA enrichment of interactor (log2),[22],10.2
same,PRISMA enrichment of interactor (log2),[23],8.47
same,PRISMA enrichment of interactor (log2),[24],4.58
same,PRISMA enrichment of interactor (log2),[25],4.41
same,PRISMA enrichment of interactor (log2),[26],5.08
same,PRISMA enrichment of interactor (log2),[27],10.9
same,PRISMA enrichment of interactor (log2),[28],6.86
same,PRISMA enrichment of interactor (log2),[29],5.47
same,PRISMA enrichment of interactor (log2),[30],4.37
same,PRISMA enrichment of interactor (log2),[31],4.39
same,PRISMA enrichment of interactor (log2),[32],5.52
same,PRISMA enrichment of interactor (log2),[33],4.91
same,PRISMA enrichment of interactor (log2),[34],4.41
same,PRISMA enrichment of interactor (log2),[35],4.14
same,PRISMA enrichment of interactor (log2),[36],6.82
same,PRISMA enrichment of interactor (log2),[37],4.92
same,PRISMA enrichment of interactor (log2),[38],5.91
same,PRISMA enrichment of interactor (log2),[39],4.61
same,PRISMA enrichment of interactor (log2),[40],9.15
same,PRISMA enrichment of interactor (log2),[41],4.97
same,PRISMA enrichment of interactor (log2),[42],8.4
B2,PRISMA enrichment of interactor (log2),[1],5.03
same,PRISMA enrichment of interactor (log2),[43],5.01
same,PRISMA enrichment of interactor (log2),[44],6.15
same,PRISMA enrichment of interactor (log2),[45],5.09
same,PRISMA enrichment of interactor (log2),[46],5.44
same,PRISMA enrichment of interactor (log2),[47],8.55
same,PRISMA enrichment of interactor (log2),[48],5.32
same,PRISMA enrichment of interactor (log2),[49],5.64
same,PRISMA enrichment of interactor (log2),[50],7.8
same,PRISMA enrichment of interactor (log2),[51],4.41
same,PRISMA enrichment of interactor (log2),[52],5.28
same,PRISMA enrichment of interactor (log2),[53],8.59
same,PRISMA enrichment of interactor (log2),[54],4.32
same,PRISMA enrichment of interactor (log2),[55],3.87
same,PRISMA enrichment of interactor (log2),[56],6.92
same,PRISMA enrichment of interactor (log2),[57],7.94
same,PRISMA enrichment of interactor (log2),[58],5.3
same,PRISMA enrichment of interactor (log2),[59],5.13
same,PRISMA enrichment of interactor (log2),[60],6.12
same,PRISMA enrichment of interactor (log2),[61],4.93
same,PRISMA enrichment of interactor (log2),[62],5.95
same,PRISMA enrichment of interactor (log2),[63],6.45
same,PRISMA enrichment of interactor (log2),[64],9.73
same,PRISMA enrichment of interactor (log2),[65],4.48
same,PRISMA enrichment of interactor (log2),[66],4.47
same,PRISMA enrichment of interactor (log2),[67],4.46
same,PRISMA enrichment of interactor (log2),[68],6.32
same,PRISMA enrichment of interactor (log2),[69],5.56
same,PRISMA enrichment of interactor (log2),[70],4.08
same,PRISMA enrichment of interactor (log2),[71],6.15
same,PRISMA enrichment of interactor (log2),[72],4.58
B3,PRISMA enrichment of interactor (log2),[73],4.32
same,PRISMA enrichment of interactor (log2),[74],4.55
same,PRISMA enrichment of interactor (log2),[75],5.92
same,PRISMA enrichment of interactor (log2),[76],5.88
same,PRISMA enrichment of interactor (log2),[49],9.28
same,PRISMA enrichment of interactor (log2),[77],4.72
same,PRISMA enrichment of interactor (log2),[26],6.78
same,PRISMA enrichment of interactor (log2),[78],5.25
same,PRISMA enrichment of interactor (log2),[79],4.33
same,PRISMA enrichment of interactor (log2),[80],5.95

# Reformatted: results already given.
binder	measurement	setting	value
B1	PRISMA enrichment of interactor (log2)	[14]	8.36
same	PRISMA enrichment of interactor (log2)	[15]	5.97
same	PRISMA enrichment of interactor (log2)	[16]	8.66

# Exported with bars between the fields: entries from further up
binder | measurement | setting | value
B1 | PRISMA enrichment of interactor (log2) | [33] | 4.91
same | PRISMA enrichment of interactor (log2) | [34] | 4.41

# — the supplement of paper PMC10032668
